# PubChem BioAssay AID2685 (National Center for Advancing Translational Sciences (NCATS), 2010)
# The other results are listed elsewhere or left out. Further columns of the screen follow, without active or inactive calls. Compounds called inactive in the main read-out are mostly missing here. Words in brackets tell the shape of the fitted curve; partial curves, single points and poor fits give uncertain potencies.
# Assay: qHTS Assay for Lipid Storage Modulators in Drosophila S3 Cells;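 on cell number change: cells counted by Cell Tracker Red CMTPX staining in the red channel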
# Conditions: BODIPY lipid droplet fluorescence, 18-24 h; for cell number change: measured here: cell count max response, cells fed with added oleic acid
# In short: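 Laser-scanning cytometry quantifies lipid droplet accumulation (500–530 nm total intensity; droplet/cell object ratio) in oleic acid-fed (400 uM added) Drosophila S3 cells treated with a concentration series. 20 uM Triacsin C defined 100% inhibition.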
# [1] = measured here: lipid fluorescence (Fed channel) AC50, cells fed with added oleic acid
# [2] = measured here: cell number channel AC50, cells fed with added oleic acid
Compound,cell number change [%],AC50 [1],AC50 [2]
CN1C(=O)N(C)C(=O)C2(Cc3c(nc4ccccn4c3=O)N3CCC(Cc4ccccc4)CC32)C1=O (stereo not given),11.4,"1.3 µM [rising, full curve, poor fit]",
COC(=O)C1=C(c2cccc(OCc3ccccc3)c2)C[C@@H]2CC[C@H]1N2C(=O)NCc1ccc(C(F)(F)F)cc1,-30.9,"29.1 µM [falling, single point]","32.6 µM [falling, single point]"
COc1ccc(CCNC(=O)c2c(N)n(CCN3CCOCC3)c3nc4ccccc4nc23)cc1OC,-45.7,"29.1 µM [falling, single point]","29.1 µM [falling, single point]"
Fc1ccc(C(OCCN2CCCC2)c2ccc(F)cc2)cc1,1.33,"0.00461 µM [falling, full curve, poor fit]",
Cc1ccc(S(=O)(=O)N(C)c2ccc(C(=O)NCC3(N(C)C)CCCCC3)cc2)cc1,25.8,"4.11 µM [rising, full curve]",
N#Cc1ccc(NC(=O)CN2C(=O)NC3(CCCCCCC3)C2=O)cc1Cl,-18.2,,
Cc1ccc(/C=C2\C(=O)NC(=O)N(CCc3ccc(F)cc3)C2=O)o1,-27.5,"29.1 µM [falling, single point]",
O=C(CF)NC(NC(=S)Nc1ccccc1O)C(Cl)(Cl)Cl (stereo not given),-14.3,,
CCOC(=O)C1CCN(C=C2C(=O)N(C)C(=S)N(C)C2=O)CC1,5.02,"20.6 µM [rising, partial curve]",
COC(=O)C1=C(c2c(C)noc2C)C[C@@H]2CC[C@H]1N2C(=O)NC(C)C,11,"4.61 µM [falling, single point]","4.61 µM [falling, single point]"
COc1ccccc1N1CCN(Cc2ccccc2)CC1,31.8,,
N#CC(C#N)=C(C#N)c1ccc(Nc2ccccc2)cc1,12.4,"29.1 µM [rising, single point]",
CCCCNC(=O)Nc1ccc(C(O)(C(=O)OC)C(F)(F)F)cc1 (stereo not given),-10.3,"0.366 µM [falling, full curve, poor fit]",
Cc1cc2oc(=O)cc(-c3cc4ccccc4o3)c2cc1OC(=O)N(C)C,,"25.9 µM [falling, partial curve]",
CCN1C(=O)NC(=O)/C(=C/c2cc(C)n(-c3sc(C)c(C)c3C#N)c2C)C1=O,7.71,"6.51 µM [rising, partial curve, poor fit]",
COC(=O)c1cc(NC(=O)Cn2c(=O)oc3ccccc32)cc(C(=O)OC)c1,,,"29.1 µM [rising, single point]"

# Single entries from the entries so far.
# CCN1C(=O)NC(=O)/C(=C/c2cc(C)n(-c3sc(C)c(C)c3C#N)c2C)C1=O – cell number change [%]: 7.71
# CCCCNC(=O)Nc1ccc(C(O)(C(=O)OC)C(F)(F)F)cc1 (stereo not given) – AC50 [1]: 0.366 µM [falling, full curve, poor fit]
